Results on eleven targets are retold here after the supplement of paper PMC12819154, “High-throughput peptide-centric local stability assay extends protein–ligand identification to membrane proteins, tissues and bacteria” (Nature Structural & Molecular Biology, 2025).

Amino acid sequences for entries named in this document (tags omitted). A change or cut given only in a name is not applied to a line headed by its entry.
UniProt A0FGR8: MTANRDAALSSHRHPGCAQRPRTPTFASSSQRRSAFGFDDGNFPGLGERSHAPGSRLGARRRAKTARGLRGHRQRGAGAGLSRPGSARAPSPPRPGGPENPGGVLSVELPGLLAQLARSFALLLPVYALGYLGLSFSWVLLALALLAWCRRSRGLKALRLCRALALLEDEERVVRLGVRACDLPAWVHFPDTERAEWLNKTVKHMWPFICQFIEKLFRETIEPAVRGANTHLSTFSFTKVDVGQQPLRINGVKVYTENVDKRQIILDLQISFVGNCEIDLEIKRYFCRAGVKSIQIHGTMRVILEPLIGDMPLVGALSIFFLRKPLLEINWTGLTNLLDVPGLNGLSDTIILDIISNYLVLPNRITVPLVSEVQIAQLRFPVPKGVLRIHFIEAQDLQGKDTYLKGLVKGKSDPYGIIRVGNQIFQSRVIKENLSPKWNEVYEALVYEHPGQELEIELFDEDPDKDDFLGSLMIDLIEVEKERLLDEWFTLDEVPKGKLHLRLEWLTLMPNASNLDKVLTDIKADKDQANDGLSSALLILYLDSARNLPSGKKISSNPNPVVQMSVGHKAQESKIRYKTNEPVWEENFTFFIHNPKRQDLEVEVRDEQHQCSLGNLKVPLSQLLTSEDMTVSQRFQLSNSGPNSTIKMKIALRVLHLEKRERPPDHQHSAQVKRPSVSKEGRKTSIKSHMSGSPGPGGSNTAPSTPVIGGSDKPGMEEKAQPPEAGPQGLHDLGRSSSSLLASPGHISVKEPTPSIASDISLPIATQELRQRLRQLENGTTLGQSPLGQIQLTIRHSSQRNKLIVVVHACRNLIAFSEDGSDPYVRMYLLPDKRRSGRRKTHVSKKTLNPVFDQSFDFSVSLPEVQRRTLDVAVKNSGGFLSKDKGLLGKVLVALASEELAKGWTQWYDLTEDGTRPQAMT
UniProt A6NHT5: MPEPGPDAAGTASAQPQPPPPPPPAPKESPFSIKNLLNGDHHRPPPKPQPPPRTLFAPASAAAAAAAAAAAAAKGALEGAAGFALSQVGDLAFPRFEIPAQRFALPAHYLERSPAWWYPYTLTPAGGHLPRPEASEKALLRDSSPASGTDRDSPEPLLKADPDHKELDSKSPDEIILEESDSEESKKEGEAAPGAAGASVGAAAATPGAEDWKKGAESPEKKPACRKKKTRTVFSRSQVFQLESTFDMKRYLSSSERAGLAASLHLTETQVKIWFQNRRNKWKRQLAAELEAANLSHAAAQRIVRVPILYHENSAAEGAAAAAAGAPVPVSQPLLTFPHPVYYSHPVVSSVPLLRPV
UniProt A6NE01: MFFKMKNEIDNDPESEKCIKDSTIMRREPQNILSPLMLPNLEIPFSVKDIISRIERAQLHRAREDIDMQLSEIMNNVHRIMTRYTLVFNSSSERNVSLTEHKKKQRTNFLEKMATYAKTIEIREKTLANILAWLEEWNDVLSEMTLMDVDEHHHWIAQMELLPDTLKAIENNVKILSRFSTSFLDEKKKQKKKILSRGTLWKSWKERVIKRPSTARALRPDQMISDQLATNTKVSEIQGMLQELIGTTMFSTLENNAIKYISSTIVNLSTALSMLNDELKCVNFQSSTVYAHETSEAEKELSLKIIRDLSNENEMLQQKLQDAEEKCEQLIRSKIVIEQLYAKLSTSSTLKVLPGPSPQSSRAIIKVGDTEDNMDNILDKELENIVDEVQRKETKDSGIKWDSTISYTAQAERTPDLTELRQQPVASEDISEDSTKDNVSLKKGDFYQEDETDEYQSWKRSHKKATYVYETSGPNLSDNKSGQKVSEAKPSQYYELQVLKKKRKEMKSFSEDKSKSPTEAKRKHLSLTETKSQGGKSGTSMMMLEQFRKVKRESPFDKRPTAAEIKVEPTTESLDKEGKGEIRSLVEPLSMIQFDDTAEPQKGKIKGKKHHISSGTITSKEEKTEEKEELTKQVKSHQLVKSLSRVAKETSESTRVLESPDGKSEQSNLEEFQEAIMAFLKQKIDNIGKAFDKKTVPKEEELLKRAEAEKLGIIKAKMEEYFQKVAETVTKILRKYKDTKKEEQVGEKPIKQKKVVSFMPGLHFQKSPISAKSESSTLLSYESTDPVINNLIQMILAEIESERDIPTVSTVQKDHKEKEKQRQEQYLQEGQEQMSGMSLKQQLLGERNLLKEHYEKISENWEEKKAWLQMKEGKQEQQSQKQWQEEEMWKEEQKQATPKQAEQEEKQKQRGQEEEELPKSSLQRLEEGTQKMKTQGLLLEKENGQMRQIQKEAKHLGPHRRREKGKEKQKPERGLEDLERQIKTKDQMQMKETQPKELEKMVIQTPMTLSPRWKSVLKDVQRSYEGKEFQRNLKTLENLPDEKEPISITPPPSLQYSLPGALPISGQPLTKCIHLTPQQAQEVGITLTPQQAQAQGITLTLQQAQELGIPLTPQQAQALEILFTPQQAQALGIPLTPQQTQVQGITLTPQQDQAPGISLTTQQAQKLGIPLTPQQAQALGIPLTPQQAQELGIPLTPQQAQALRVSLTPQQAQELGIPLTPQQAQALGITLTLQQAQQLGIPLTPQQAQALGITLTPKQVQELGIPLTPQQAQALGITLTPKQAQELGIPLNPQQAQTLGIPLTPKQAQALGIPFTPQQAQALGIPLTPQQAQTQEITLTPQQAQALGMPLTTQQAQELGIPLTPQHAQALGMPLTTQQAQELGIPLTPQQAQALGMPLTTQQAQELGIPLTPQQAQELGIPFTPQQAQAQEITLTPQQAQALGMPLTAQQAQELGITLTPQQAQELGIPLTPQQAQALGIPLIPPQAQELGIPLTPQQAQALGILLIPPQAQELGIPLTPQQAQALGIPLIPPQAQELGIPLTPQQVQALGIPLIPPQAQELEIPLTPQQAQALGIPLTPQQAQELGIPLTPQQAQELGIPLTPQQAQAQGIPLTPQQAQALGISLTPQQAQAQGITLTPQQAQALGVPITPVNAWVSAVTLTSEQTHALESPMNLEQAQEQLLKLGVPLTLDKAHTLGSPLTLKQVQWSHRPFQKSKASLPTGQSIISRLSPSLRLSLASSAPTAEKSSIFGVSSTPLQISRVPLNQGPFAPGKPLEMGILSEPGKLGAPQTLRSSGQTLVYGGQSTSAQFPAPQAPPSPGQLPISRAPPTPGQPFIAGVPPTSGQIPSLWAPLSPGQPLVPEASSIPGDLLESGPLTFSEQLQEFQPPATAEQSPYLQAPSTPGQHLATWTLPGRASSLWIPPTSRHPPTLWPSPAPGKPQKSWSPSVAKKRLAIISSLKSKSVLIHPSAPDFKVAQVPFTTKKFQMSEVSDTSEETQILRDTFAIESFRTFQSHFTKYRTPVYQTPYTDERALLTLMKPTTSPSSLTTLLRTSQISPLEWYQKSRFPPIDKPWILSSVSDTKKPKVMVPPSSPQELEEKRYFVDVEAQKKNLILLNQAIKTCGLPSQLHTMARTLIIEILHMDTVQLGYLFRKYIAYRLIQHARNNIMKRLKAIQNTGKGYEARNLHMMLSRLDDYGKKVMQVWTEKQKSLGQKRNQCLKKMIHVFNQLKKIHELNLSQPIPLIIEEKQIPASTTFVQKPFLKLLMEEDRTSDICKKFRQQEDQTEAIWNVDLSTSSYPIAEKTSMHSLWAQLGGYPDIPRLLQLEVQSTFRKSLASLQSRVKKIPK
UniProt A1X283: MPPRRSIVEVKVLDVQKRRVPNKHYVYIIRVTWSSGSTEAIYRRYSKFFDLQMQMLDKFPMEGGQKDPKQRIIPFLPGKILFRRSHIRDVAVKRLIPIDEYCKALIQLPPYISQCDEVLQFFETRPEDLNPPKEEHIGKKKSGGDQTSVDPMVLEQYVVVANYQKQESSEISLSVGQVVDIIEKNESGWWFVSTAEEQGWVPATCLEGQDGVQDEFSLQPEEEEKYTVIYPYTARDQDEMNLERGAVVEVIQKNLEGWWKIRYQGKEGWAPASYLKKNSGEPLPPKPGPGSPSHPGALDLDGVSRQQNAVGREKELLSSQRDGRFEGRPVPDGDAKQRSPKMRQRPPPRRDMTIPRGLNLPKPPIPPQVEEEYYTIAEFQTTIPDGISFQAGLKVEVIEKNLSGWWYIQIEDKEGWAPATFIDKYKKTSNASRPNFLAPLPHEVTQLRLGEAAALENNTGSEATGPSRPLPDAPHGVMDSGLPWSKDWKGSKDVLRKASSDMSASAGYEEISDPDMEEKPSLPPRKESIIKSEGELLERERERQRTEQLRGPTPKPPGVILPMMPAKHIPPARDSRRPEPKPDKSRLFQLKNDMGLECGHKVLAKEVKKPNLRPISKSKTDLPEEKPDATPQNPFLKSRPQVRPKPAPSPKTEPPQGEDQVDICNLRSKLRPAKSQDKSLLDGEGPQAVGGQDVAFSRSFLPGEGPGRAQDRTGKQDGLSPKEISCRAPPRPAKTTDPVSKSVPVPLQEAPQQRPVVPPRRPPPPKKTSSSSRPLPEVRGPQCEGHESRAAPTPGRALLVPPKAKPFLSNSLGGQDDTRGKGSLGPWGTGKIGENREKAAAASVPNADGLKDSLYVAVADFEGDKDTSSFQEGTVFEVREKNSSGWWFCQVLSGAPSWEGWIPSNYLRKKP
UniProt A7E2V4, whole entry: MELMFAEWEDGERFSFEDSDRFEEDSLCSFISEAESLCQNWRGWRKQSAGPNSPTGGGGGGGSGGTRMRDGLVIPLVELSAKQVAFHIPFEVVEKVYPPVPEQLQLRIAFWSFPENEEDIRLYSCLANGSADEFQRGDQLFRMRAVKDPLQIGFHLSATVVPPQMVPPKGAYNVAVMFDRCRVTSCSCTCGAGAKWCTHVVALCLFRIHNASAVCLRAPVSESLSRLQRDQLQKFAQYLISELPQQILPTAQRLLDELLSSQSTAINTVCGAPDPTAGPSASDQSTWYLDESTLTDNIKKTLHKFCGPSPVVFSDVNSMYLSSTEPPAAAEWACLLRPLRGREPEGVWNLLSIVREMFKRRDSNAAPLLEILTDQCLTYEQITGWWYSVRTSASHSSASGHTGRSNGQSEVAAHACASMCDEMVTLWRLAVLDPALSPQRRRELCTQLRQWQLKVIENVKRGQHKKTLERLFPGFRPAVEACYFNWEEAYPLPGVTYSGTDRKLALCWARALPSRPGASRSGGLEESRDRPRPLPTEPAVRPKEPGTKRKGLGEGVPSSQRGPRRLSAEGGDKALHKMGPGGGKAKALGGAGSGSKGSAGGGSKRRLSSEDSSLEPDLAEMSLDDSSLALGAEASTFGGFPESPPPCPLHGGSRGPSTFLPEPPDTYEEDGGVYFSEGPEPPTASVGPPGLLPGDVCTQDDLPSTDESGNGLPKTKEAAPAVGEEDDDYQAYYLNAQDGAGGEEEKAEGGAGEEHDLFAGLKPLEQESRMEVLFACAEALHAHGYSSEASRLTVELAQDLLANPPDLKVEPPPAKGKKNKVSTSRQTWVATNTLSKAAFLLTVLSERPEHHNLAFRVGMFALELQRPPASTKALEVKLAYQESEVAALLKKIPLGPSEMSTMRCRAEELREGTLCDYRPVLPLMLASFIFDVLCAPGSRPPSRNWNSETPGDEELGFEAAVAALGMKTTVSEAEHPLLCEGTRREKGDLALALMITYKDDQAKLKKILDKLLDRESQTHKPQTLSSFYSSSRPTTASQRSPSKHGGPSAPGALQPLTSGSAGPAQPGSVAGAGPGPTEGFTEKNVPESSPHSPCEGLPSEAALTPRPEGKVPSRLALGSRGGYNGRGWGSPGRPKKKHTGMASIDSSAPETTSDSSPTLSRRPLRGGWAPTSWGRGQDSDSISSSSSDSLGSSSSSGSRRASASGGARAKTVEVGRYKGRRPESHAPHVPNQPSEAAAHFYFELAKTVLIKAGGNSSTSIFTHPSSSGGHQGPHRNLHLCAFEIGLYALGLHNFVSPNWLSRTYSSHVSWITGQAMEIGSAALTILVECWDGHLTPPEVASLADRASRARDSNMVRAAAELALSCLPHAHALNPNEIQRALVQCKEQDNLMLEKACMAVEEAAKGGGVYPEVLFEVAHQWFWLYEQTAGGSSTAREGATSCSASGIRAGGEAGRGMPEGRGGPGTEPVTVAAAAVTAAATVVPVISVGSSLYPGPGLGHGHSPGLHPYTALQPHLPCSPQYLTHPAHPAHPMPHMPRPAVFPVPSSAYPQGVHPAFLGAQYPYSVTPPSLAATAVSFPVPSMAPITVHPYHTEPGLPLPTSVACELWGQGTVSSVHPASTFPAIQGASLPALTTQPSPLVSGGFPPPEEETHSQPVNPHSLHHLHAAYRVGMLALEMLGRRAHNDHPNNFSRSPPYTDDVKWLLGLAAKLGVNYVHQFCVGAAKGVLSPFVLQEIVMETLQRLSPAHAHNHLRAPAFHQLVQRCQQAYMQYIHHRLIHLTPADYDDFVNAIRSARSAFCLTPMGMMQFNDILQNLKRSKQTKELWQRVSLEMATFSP

The other results are listed elsewhere or left out. Small differences around the control level are noise.

Compound in this experiment: Cc1nc(Nc2ncc(C(=O)Nc3c(C)cccc3Cl)s2)cc(N2CCN(CCO)CC2)n1 [dasatinib]
The experiment in a line: log2 fold change of tryptic peptide abundance, ligand vs vehicle (limited proteolysis) (log2 ratio); higher = more trypsin-susceptible (destabilized). As to conditions: ligand concentration: 5 uM; sample: K562 cleared lysate.
On to “A0A494C030 (peptide sequence: RPADTGPVWVPR, peptide start residue: 165)”, for which the log2 fold change was -0.117.

Take “KRBA1 (peptide sequence: RLQENPGAWKR, peptide start residue: 296) (UniProt A5PL33)”: the log2 fold change is -0.597.

In the case of “UniProt A6NJ78 (peptide sequence: FLLGISMTER, peptide start residue: 332)”, the log2 fold change was -0.241.

“UniProt A0FGR8 (peptide sequence: SSSSLLASPGHISVK, peptide start residue: 736)”: the log2 fold change stood at 0.174.

Turning to “UniProt A6NF01 (peptide sequence: IVPAHVPTPIQPTFGGATHSAFGLK, peptide start residue: 996)”, the log2 fold change is 0.0643.

On to “A0AV96 (peptide sequence: GSYLGGYSAGR, peptide start residue: 395)”, for which the log2 fold change came to 0.198.

In the case of “HMX3 (peptide sequence: QLAAELEAANLSHAAAQR, peptide start residue: 285) (UniProt A6NHT5)”, the log2 fold change was -0.206.

For the target “UniProt A6NE01 (peptide sequence: KILSRGTLWK, peptide start residue: 193)”, the log2 fold change is -0.0208.

For “SH3PXD2B (peptide sequence: SFLPGEGPGR, peptide start residue: 699) (UniProt A1X283)”, the log2 fold change is 0.393.

Take “UniProt A6NFD8 (peptide sequence: KRTPVSHK, peptide start residue: 9)”: the log2 fold change turned out to be 0.159.

Regarding “ZSWIM8 (peptide sequence: AAAELALSCLPHAHALNPNEIQR, peptide start residue: 1357) (UniProt A7E2V4)”, the log2 fold change was -0.251.
